According to the supplement of paper PMC10373366:
Some of the results follow. Most values come without repeats; read them as rough.

Assays:
[1] = test system: A2780; test: cell growth inhibition ratio vs untreated control (CCK8); higher = stronger inhibition of cell viability; settings: 10 µM; 48 h
Protocol: (§1)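 Natural product library (Topscience) screened at 10 µM final concentration for 48 h on ovarian cancer A2780 cells and patient-derived ovarian cancer cells (PDC) in 96-well plates; viability read by CCK8 and reported as inhibition ratio (%) relative to untreated control. Single-dose primary screen.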

[2] = test system: patient-derived ovarian cancer cells (PDC); test: as above; settings: 10 µM; 48 h
Protocol: as §1

Structure (SMILES)	cell growth inhibition ratio [1] [%]	cell growth inhibition ratio [2] [%]
O=C1C(=C(O)C=Cc2ccc(O)cc2)C(O)=C([C@@H]2O[C@H](CO)[C@@H](O)[C@H](O)[C@H]2O)C(=O)C1(O)[C@@H]1O[C@H](CO)[C@@H](O)[C@H](O)[C@H]1O (stereo not given in full) [Hydroxysafflor yellow A]	11.1	-0.441
CC(C)c1cccc(O)c(=O)c1 [β-thujaplicin]	59.6	29.8
C[C@@H]1CC[C@@]2(OC1)O[C@H]1C[C@H]3[C@@H]4CC=C5C[C@@H](O[C@@H]6O[C@H](CO)[C@@H](O[C@@H]7O[C@@H](CO)[C@H](O)[C@H]7O)[C@H](O)[C@H]6O[C@@H]6O[C@@H](C)[C@H](O)[C@@H](O)[C@H]6O)CC[C@]5(C)[C@H]4CC[C@]3(C)[C@H]1[C@@H]2C	93.3	91.3
O=C(CO)C(O)C(O)C(O)CO (stereo not drawn) [L(-)-sorbose]	25.3	14.5
COC(=O)c1ccc(O)c(OC)c1 [Methyl Vanillate]	-0.832	16.9
O=c1c(-c2ccc(O)c(O)c2)coc2c([C@@H]3O[C@H](CO)[C@@H](O)[C@H](O)[C@H]3O)c(O)ccc12 [Pueraria glycoside]	9.24	-11
C[C@@H]1O[C@@H](Oc2c(-c3cc(O)c(O)c(O)c3)oc3cc(O)cc(O)c3c2=O)[C@H](O)[C@H](O)[C@H]1O [Myricetrin]	3.17	-19.9
C[N+](C)(C)CC(=O)O [Betaine]	12.9	5.95
O=C1c2c(O)cc(O)cc2O[C@H](c2cc(O)c(O)c(O)c2)[C@H]1O [Dihydromyricetin]	-2.05	-1
CC(C)=CCC[C@](C)(O)[C@H]1CC[C@]2(C)[C@@H]1[C@H](O)C[C@@H]1[C@@]3(C)CC[C@H](O)C(C)(C)[C@@H]3CC[C@]12C [(20S)-Protopanaxadiol]	-3.52	-11.5
CC(C)=CC[C@@H](O)C1=CC(=O)c2c(O)ccc(O)c2C1=O [Shikonin]	91.1	41
C#C[C@]1(O)CC[C@H]2[C@@H]3CCc4cc(O)ccc4[C@H]3CC[C@@]21C [Ethynyl estradiol]	77.6	15.8
COc1cc(/C=C/C(=O)OC[C@H]2O[C@H](O[C@]3(CO)O[C@H](CO)[C@@H](O)[C@@H]3OC(=O)/C=C/c3cc(OC)c(O)c(OC)c3)[C@H](O)[C@@H](O)[C@@H]2O)cc(OC)c1O [3,6'-Disinapoyl sucrose]	5.14	-0.165
C[C@@H]1O[C@@H](OC[C@H]2O[C@@H](Oc3c(-c4ccc(OCCO)c(OCCO)c4)oc4cc(OCCO)cc(O)c4c3=O)[C@H](O)[C@@H](O)[C@@H]2O)[C@H](O)[C@H](O)[C@H]1O [Troxerutin]	-1.04	-4.79
COC(=O)/C=C/c1ccc(O)cc1 [Methyl 4-hydroxycinnamate]	-64.4	5.23
O=C1O[C@H]([C@@H](O)CO)C(O)=C1O [L(+)-Ascorbic acid]	10.7	2.06
O=c1c(-c2ccc(O)cc2)coc2cc(O)ccc12 [Daidzein]	1	4.88
OC[C@H]1O[C@@H](Oc2ccc(O)cc2)[C@H](O)[C@@H](O)[C@@H]1O [Arbutin]	-10.2	13.9
COc1cc(/C=C/C(=O)OCC[N+](C)(C)C)cc(OC)c1O [Sinapine thiocyanate]	-0.334	-7.67
COc1cc(CCC(=O)O)ccc1O [Hydroferulic acid]	-0.791	26.6
COc1cc(C(=S)N2CCOCC2)ccc1O [Vanitiolide]	5.4	1.12
CO[C@H]1C[C@H](O[C@H]2[C@H](C)O[C@@H](O[C@@H]3/C(C)=C/C[C@@H]4C[C@@H](C[C@]5(C=C[C@H](C)[C@@H](C6CCCCC6)O5)O4)OC(=O)[C@@H]4C=C(C)[C@@H](O)[C@H]5OC/C(=C\C=C\[C@@H]3C)[C@]54O)C[C@@H]2OC)O[C@@H](C)[C@@H]1O [Doramectin]	6.82	-3.96
O=C(O)C1=C[C@@H](O)[C@@H](O)[C@H](O)C1 [Shikimic Acid]	-0.739	-10.1

Structure (SMILES)	cell growth inhibition ratio [1] [%]	cell growth inhibition ratio [2] [%]
CC1(C)CC[C@]2(C(=O)O)CC[C@]3(CO)C(=CC[C@@H]4[C@@]5(C)C[C@H](O)[C@H](O[C@@H]6O[C@H](CO)[C@@H](O)[C@H](O)[C@H]6O)[C@@](C)(C(=O)O)[C@@H]5CC[C@]43C)[C@@H]2C1 [Tenuifolin]	16.8	8.94
C[C@H]1O[C@@H](O[C@H]2CC[C@@]3(C)[C@@H](CC[C@]4(C)[C@@H]3C=C[C@]35OC[C@@]6(CCC(C)(C)C[C@H]63)[C@H](O)C[C@]54C)[C@]2(C)CO)[C@H](O)[C@@H](O[C@@H]2O[C@H](CO)[C@@H](O)[C@H](O)[C@H]2O)[C@H]1O [Saikosaponin D]	91.8	91.9
COC(=O)C1=CO[C@@H](O)[C@@H]2C(CO)=CC[C@H]12 [Genipin]	4.39	-1.47
CC1(C)CC[C@]2(C)CC[C@]3(C)C(=CC[C@@H]4[C@@]5(C)CC[C@@H](O)[C@](C)(C(=O)O)[C@@H]5CC[C@]43C)[C@@H]2C1	17	5.6
CCCCCCCCCCCC1=C(O)C(=O)C=C(O)C1=O [Embelin]	10.6	9.33
Cc1cccc(C)c1NC(=O)c1ccccc1C(=O)O [Ftaxilide]	0.849	-13
O[C@H]1[C@H]2c3cc4c(cc3CN3CCC(=C[C@@H]1O)[C@H]23)OCO4 [Lycorine]	77.3	69.8
c1ccc2c(Cc3c[nH]c4ccccc34)c[nH]c2c1 [3,3'-Diindolylmethane]	-6.17	7.52
N[C@@H]1CONC1=O [D-Cycloserine]	6.67	-3.36
O=C(O)[C@@H](O)[C@H](O)[C@H](O)[C@@H](O)C(=O)O [Mucic Acid]	5.04	-0.75
C[C@@H]1O[C@@H](O[C@H]2[C@H](O[C@H]3CC[C@@]4(C)[C@@H](CC[C@]5(C)[C@@H]4CC=C4[C@@H]6CC(C)(C)CC[C@]6(C(=O)O[C@@H]6O[C@H](CO[C@@H]7O[C@H](CO)[C@@H](O[C@@H]8O[C@@H](C)[C@H](O)[C@@H](O)[C@H]8O)[C@H](O)[C@H]7O)[C@@H](O)[C@H](O)[C@H]6O)CC[C@]45C)[C@]3(C)CO)OC[C@H](O)[C@@H]2O)[C@H](O)[C@H](O)[C@H]1O [Hederacoside C]	8.8	1.29
CC(=O)OC1CC2CCC1(C)C2(C)C (stereo not given) [Bornyl acetate]	11.4	-2.26
CNC[C@H](O)c1ccc(O)c(O)c1 [Epinephrine bitartrate]	2.57	20.2
CC12CCC(CC1)C(C)(C)O2 [Eucalyptol]	17.9	-8.53
Oc1cc(O)c2c(c1)O[C@H](c1ccc(O)c(O)c1)[C@H](O)C2 [Epicatechin]	-6.73	-22.5
C[C@@H]1O[C@@H](O[C@@H]2[C@H](O)[C@@H](O)[C@H](O[C@H]3CC[C@@]4(C)C(CC[C@]5(C)C4C=C[C@]46OC[C@@]7(CCC(C)(C)CC74)[C@@H](O)C[C@]65C)C3(C)C)O[C@@H]2CO[C@@H]2O[C@H](CO)[C@@H](O)[C@H](O)[C@H]2O)[C@H](O)[C@H](O)[C@H]1O (stereo not given in full) [Saikosaponin C]	-0.000153	4.57
O=c1cc[nH]c(=O)[nH]1 [Uracil]	12.3	-3.09
O=c1ccn([C@@H]2O[C@H](CO)[C@@H](O)[C@H]2O)c(=O)[nH]1 [Uridine]	-2.38	-10.7
C=C(C)[C@H]1CC=C(C)CC1 [(R)-(+)-Limonene]	12	18.2
O=P(O)(O)O[C@H]1[C@H](OP(=O)(O)O)[C@@H](OP(=O)(O)O)[C@H](OP(=O)(O)O)[C@@H](OP(=O)(O)O)[C@H]1OP(=O)(O)O [Phytic acid]	16.5	4.32
COc1cc(C(=O)O)cc(OC)c1O [Syringic acid]	-12.4	5.84
O=C(O)c1ccccc1 [Benzoic acid]	9.01	4.39

Whole records from above.
C[C@@H]1CC[C@@]2(OC1)O[C@H]1C[C@H]3[C@@H]4CC=C5C[C@@H](O[C@@H]6O[C@H](CO)[C@@H](O[C@@H]7O[C@@H](CO)[C@H](O)[C@H]7O)[C@H](O)[C@H]6O[C@@H]6O[C@@H](C)[C@H](O)[C@@H](O)[C@H]6O)CC[C@]5(C)[C@H]4CC[C@]3(C)[C@H]1[C@@H]2C is listed as cell growth inhibition ratio [1] [%]: 93.3; cell growth inhibition ratio [2] [%]: 91.3
O=c1cc[nH]c(=O)[nH]1 [Uracil] is listed as cell growth inhibition ratio [1] [%]: 12.3; cell growth inhibition ratio [2] [%]: -3.09
COc1cc(CCC(=O)O)ccc1O [Hydroferulic acid] is listed as cell growth inhibition ratio [1] [%]: -0.791; cell growth inhibition ratio [2] [%]: 26.6
